Experimental data reported in the supplement of paper PMC8728848.
Some of the results follow.

Assays:
Test in all cases: glycan array binding signal (z-score within array); higher = stronger binding
Details in all cases: glycan notation: IUPAC condensed, linker removed
[1] = molecular target: Fuc(a1-2)Gal
Outline: (§1)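 The binding signal is a Z-score computed within each array and averaged over linkers. Arrays of the same protein sequence at different concentrations or buffers were also averaged together. Data originate from 3228 arrays in the Consortium for Functional Glycomics database, kept only where the protein sequence was available.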

[2] = molecular target: Fuc(a1-2)Gal(b1-3)GalNAc
Outline: as §1

[3] = molecular target: Fuc(a1-2)Gal(b1-3)GalNAc(a1-3)[Fuc(a1-2)]Gal(b1-4)Glc
Outline: as §1

[4] = molecular target: Fuc(a1-2)Gal(b1-3)GalNAc(a1-3)[Fuc(a1-2)]Gal(b1-4)GlcNAc
Outline: as §1

[5] = molecular target: Fuc(a1-2)Gal(b1-3)GalNAc(b1-3)Gal
Outline: as §1

[6] = molecular target: Fuc(a1-2)Gal(b1-3)GalNAc(b1-3)Gal(a1-4)Gal(b1-4)Glc
Outline: as §1

[7] = molecular target: Fuc(a1-2)Gal(b1-3)GalNAc(b1-4)[Neu5Ac(a2-3)]Gal(b1-4)Glc
Outline: as §1

[8] = molecular target: Fuc(a1-2)Gal(b1-3)GlcNAc
Outline: as §1

[9] = molecular target: Fuc(a1-2)Gal(b1-3)GlcNAc(b1-2)Man(a1-3)[Fuc(a1-2)Gal(b1-3)GlcNAc(b1-2)Man(a1-6)]Man(b1-4)GlcNAc(b1-4)GlcNAc
Outline: as §1

[10] = molecular target: Fuc(a1-2)Gal(b1-3)GlcNAc(b1-2)Man(a1-3)[Fuc(a1-2)Gal(b1-3)GlcNAc(b1-2)Man(a1-6)]Man(b1-4)GlcNAc(b1-4)[Fuc(a1-6)]GlcNAc
Outline: as §1

[11] = molecular target: Fuc(a1-2)Gal(b1-3)GlcNAc(b1-3)Gal(b1-4)Glc
Outline: as §1

[12] = molecular target: Fuc(a1-2)Gal(b1-3)GlcNAc(b1-3)GalNAc
Outline: as §1

[13] = molecular target: Fuc(a1-2)Gal(b1-3)GlcNAc(b1-3)[Fuc(a1-2)Gal(b1-3)GlcNAc(b1-6)]GalNAc
Outline: as §1

[14] = molecular target: Fuc(a1-2)Gal(b1-3)GlcNAc(b1-3)[Gal(b1-4)GlcNAc(b1-6)]Gal(b1-4)Glc
Outline: as §1

[15] = molecular target: Fuc(a1-2)Gal(b1-3)GlcNAc(b1-3)[Neu5Ac(a2-6)Gal(b1-4)GlcNAc(b1-6)]Gal(b1-4)Glc
Outline: as §1

[16] = molecular target: Fuc(a1-2)Gal(b1-3)GlcNAc6S
Outline: as §1

[17] = molecular target: Fuc(a1-2)Gal(b1-3)[Fuc(a1-4)]GlcNAc
Outline: as §1

[18] = molecular target: Fuc(a1-2)Gal(b1-3)[Fuc(a1-4)]GlcNAc(b1-2)Man(a1-3)[Fuc(a1-2)Gal(b1-3)[Fuc(a1-4)]GlcNAc(b1-2)Man(a1-3)]Man(b1-4)GlcNAc(b1-4)GlcNAc
Outline: as §1

[19] = molecular target: Fuc(a1-2)Gal(b1-3)[Fuc(a1-4)]GlcNAc(b1-2)Man(a1-3)[Fuc(a1-2)Gal(b1-3)[Fuc(a1-4)]GlcNAc(b1-2)Man(a1-6)]Man(b1-4)GlcNAc(b1-4)[Fuc(a1-6)]GlcNAc(b1-4)[Fuc(a1-6)]GlcNAc
Outline: as §1

[20] = molecular target: Fuc(a1-2)Gal(b1-3)[Fuc(a1-4)]GlcNAc(b1-3)[Fuc(a1-3)[Gal(b1-4)]GlcNAc(b1-6)]Gal(b1-4)Glc
Outline: as §1

[21] = molecular target: Fuc(a1-2)Gal(b1-3)[Fuc(a1-4)]GlcNAc(b1-3)[Gal(b1-4)GlcNAc(b1-6)]Gal(b1-4)Glc
Outline: as §1

[22] = molecular target: Fuc(a1-2)Gal(b1-4)Fuc(a1-3)]GlcNAc(b1-2)Man(a1-3)[Fuc(a1-2)Gal(b1-4)[Fuc(a1-3)]GlcNAc(b1-2)Man(a1-6)]Man(b1-4)GlcNAc(b1-4)GlcNAc
Outline: as §1

[23] = molecular target: Fuc(a1-2)Gal(b1-4)Glc
Outline: as §1

[24] = molecular target: Fuc(a1-2)Gal(b1-4)Glc6S
Outline: as §1

[25] = molecular target: Fuc(a1-2)Gal(b1-4)GlcNAc
Outline: as §1

[26] = molecular target: Fuc(a1-2)Gal(b1-4)GlcNAc(b1-2)Man
Outline: as §1

[27] = molecular target: Fuc(a1-2)Gal(b1-4)GlcNAc(b1-2)Man(a1-3)[Fuc(a1-2)Gal(b1-4)GlcNAc(b1-2)Man(a1-6)]Man(b1-4)GlcNAc(b1-4)GlcNAc
Outline: as §1

[28] = molecular target: Fuc(a1-2)Gal(b1-4)GlcNAc(b1-2)Man(a1-3)[Fuc(a1-2)Gal(b1-4)GlcNAc(b1-2)Man(a1-6)]Man(b1-4)GlcNAc(b1-4)[Fuc(a1-6)]GlcNAc
Outline: as §1

[29] = molecular target: Fuc(a1-2)Gal(b1-4)GlcNAc(b1-2)[Fuc(a1-2)Gal(b1-4)GlcNAc(b1-4)]Man(a1-3)[Fuc(a1-2)Gal(b1-4)GlcNAc(b1-2)Man(a1-6)]Man(b1-4)GlcNAc(b1-4)GlcNAc
Outline: as §1

[30] = molecular target: Fuc(a1-2)Gal(b1-4)GlcNAc(b1-3)Gal(b1-4)GlcNAc
Outline: as §1

B1: SHCBP1-GST (Homo sapiens), Q8NEM2 (protein)
chain: MADGSLTGGGLEAAAMAPERMGWAVEQELASLEKGLFQDEDSCSDCSYRDKPGSSLQSFMPEGKTFFPEIFQTNQLLFYERFRAYQDYILADCKASEVQEFTAEFLEKVLEPSGWRAVWHTNVFKVLVEITDVDFAALKAVVRLAEPYLCDSQVSTFTMECMKELLDLKEHRLPLQELWVVFDDSGVFDQTALAIEHVRFFYQNIWRSWDEEEEDEYDYFVRCVEPRLRLHYDILEDRVPSGLIVDYHNLLSQCEESYRKFLNLRSSLSNCNSDSEQENISMVEGLKLYSEMEQLKQKLKLIENPLLRYVFGYQKNSNIQAKGVRSSGQKITHVVSSTMMAGLLRSLLTDRLCQEPGEEEREIQFHSDPLSAINACFEGDTVIVCPGHYVVHGTFSIADSIELEGYGLPDDIVIEKRGKGDTFVDCTGADIKISGIKFVQHDAVEGILIVHRGKTTLENCVLQCETTGVTVRTSAEFLMKNSDLYGAKGAGIEIYPGSQCTLSDNGIHHCKEGILIKDFLDEHYDIPKISMVNNIIHNNEGYGVVLVKPTIFSDLQENAEDGTEENKALKIQTSGEPDVAERVDLEELIECATGKMELCARTDPSEQVEGNCEIVNELIAASTQKGQIKKKRLSELGITQADDNLMSQEMFVGIVGNQFKWNGKGSFGTFLF
glycan array binding signal (z-score) [1]: -0.698 | glycan array binding signal (z-score) [2]: -0.317 | glycan array binding signal (z-score) [3]: -0.92 | glycan array binding signal (z-score) [4]: -0.781 | glycan array binding signal (z-score) [5]: 1.05 | glycan array binding signal (z-score) [6]: -0.164 | glycan array binding signal (z-score) [7]: -0.821 | glycan array binding signal (z-score) [8]: -0.695 | glycan array binding signal (z-score) [9]: 0.369 | glycan array binding signal (z-score) [10]: 0.265 | glycan array binding signal (z-score) [11]: -0.116 | glycan array binding signal (z-score) [12]: -1.22 | glycan array binding signal (z-score) [13]: 0.926 | glycan array binding signal (z-score) [14]: 1.25 | glycan array binding signal (z-score) [15]: -0.751 | glycan array binding signal (z-score) [16]: -0.806 | glycan array binding signal (z-score) [17]: 0.085 | glycan array binding signal (z-score) [18]: 0.999 | glycan array binding signal (z-score) [19]: -0.004 | glycan array binding signal (z-score) [20]: -0.169 | glycan array binding signal (z-score) [21]: -0.384 | glycan array binding signal (z-score) [22]: 1.07 | glycan array binding signal (z-score) [23]: -0.192 | glycan array binding signal (z-score) [24]: -0.251 | glycan array binding signal (z-score) [25]: -0.448 | glycan array binding signal (z-score) [26]: -0.583 | glycan array binding signal (z-score) [27]: 1.65 | glycan array binding signal (z-score) [28]: 0.201 | glycan array binding signal (z-score) [29]: 0.511 | glycan array binding signal (z-score) [30]: -0.943
